Reference: publication PMC7205312
No constants are given. Whether binding was seen depends on the method and setting. In cells and extracts the contact can be indirect. Some results given as binding are weak or reduced against the parent protein; the word gives no strength. Each block holds one binder with its values, some of them ahead of it.

Experiments:
[1] = biological target: Tm-2^2 LRR domain (aa 493-861) (tomato) (UniProt Q71BG9); assay: co-IP; isolated domains with C-terminal YFP or Myc tag co-expressed in N. benthamiana for 48 hours; IP with anti-GFP beads; blot anti-Myc
[2] = biological target: T1, Tm-2^2 CC domain (aa 1-141) (tomato) (UniProt Q71BG9); assay: as above
T1 sequence: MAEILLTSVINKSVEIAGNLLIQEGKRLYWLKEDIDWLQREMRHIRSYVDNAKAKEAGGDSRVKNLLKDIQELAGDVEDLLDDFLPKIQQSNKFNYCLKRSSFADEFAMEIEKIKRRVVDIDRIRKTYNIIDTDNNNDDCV

[3] = biological target: T2, Tm-2^2 NB-ARC domain (aa 141-492) (tomato) (UniProt Q71BG9); assay: as above
T2 sequence: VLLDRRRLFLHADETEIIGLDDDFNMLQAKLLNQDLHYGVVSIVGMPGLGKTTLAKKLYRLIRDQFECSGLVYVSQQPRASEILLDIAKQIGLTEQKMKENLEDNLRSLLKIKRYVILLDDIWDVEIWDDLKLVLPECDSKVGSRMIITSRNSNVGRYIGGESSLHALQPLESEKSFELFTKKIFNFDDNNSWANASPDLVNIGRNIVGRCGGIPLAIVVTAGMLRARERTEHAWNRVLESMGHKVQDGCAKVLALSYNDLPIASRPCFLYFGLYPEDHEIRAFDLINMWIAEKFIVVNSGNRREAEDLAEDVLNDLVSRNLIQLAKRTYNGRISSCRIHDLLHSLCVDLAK

[4] = biological target: Tm-2^2 LRR domain (aa 493-861) (tomato) (UniProt Q71BG9); assay: co-IP; isolated domains with HA or Myc tag co-expressed in N. benthamiana, no MP; IP with anti-Myc beads; blot anti-HA
[5] = biological target: Tm-2^2 CC-NB-ARC-Rop (tomato) (UniProt Q71BG9); assay: co-IP; Myc-Rop and YFP-Rop tagged (plasma-membrane tethered) copies co-expressed in pair in N. benthamiana; IP with anti-GFP beads; blot anti-Myc
[6] = biological target: Tm-2^2 CC-NB-ARC (D481V, L242A)-Rop (tomato) (UniProt Q71BG9); assay: as above
[7] = biological target: Tm-2^2 CC-NB-ARC (D481V, L233A)-Rop (tomato) (UniProt Q71BG9); assay: as above
[8] = biological target: Tm-2^2 CC-NB-ARC (D481V)-Rop (tomato) (UniProt Q71BG9); assay: as above
[9] = biological target: T2, Tm-2^2 NB-ARC domain (aa 141-492) (tomato); assay: co-IP; isolated domains with HA or Myc tag co-expressed in N. benthamiana, no MP; IP with anti-Myc beads; blot anti-HA
[10] = biological target: Tm-2^2 CC-DP-Rop (tomato) (UniProt Q71BG9); assay: co-IP; Myc-Rop and YFP-Rop tagged (plasma-membrane tethered) copies co-expressed in pair in N. benthamiana; IP with anti-GFP beads; blot anti-Myc
Tm-2^2 (tomato) [11] = biological target: Tm-2^2 (tomato) (UniProt Q71BG9); assay: co-IP; Myc- and HA-tagged copies of full-length Tm-2^2 (or mutant) co-expressed WITH TMV MP-YFP (GenBank BAF93925.1) in N. benthamiana; leaves collected at 22-24 hpi; IP with anti-Myc beads, 3 h at 4°C, IP buffer 25 mM Tris-HCl pH 7.5, 150 mM NaCl, 1 mM EDTA, 10% glycerol, 10 mM DTT, 0.2-0.5% NP-40; blot anti-HA
Tm-2^2 (tomato) [12] = biological target: Tm-2^2 (tomato) (UniProt Q71BG9); assay: co-IP; Myc- and HA-tagged copies of full-length Tm-2^2 (or D481V) co-expressed WITHOUT TMV MP in N. benthamiana; IP with anti-Myc beads; blot anti-HA

B2: Tm-2^2 CC-NB-ARC-Rop (domain or fragment, UniProt Q71BG9 1-492)
chain: MAEILLTSVINKSVEIAGNLLIQEGKRLYWLKEDIDWLQREMRHIRSYVDNAKAKEAGGDSRVKNLLKDIQELAGDVEDLLDDFLPKIQQSNKFNYCLKRSSFADEFAMEIEKIKRRVVDIDRIRKTYNIIDTDNNNDDCVLLDRRRLFLHADETEIIGLDDDFNMLQAKLLNQDLHYGVVSIVGMPGLGKTTLAKKLYRLIRDQFECSGLVYVSQQPRASEILLDIAKQIGLTEQKMKENLEDNLRSLLKIKRYVILLDDIWDVEIWDDLKLVLPECDSKVGSRMIITSRNSNVGRYIGGESSLHALQPLESEKSFELFTKKIFNFDDNNSWANASPDLVNIGRNIVGRCGGIPLAIVVTAGMLRARERTEHAWNRVLESMGHKVQDGCAKVLALSYNDLPIASRPCFLYFGLYPEDHEIRAFDLINMWIAEKFIVVNSGNRREAEDLAEDVLNDLVSRNLIQLAKRTYNGRISSCRIHDLLHSLCVDLAK
binding [5]: binds

B3: Tm-2^2 CC-NB-ARC (D481V, L242A)-Rop (domain or fragment, UniProt Q71BG9 1-492)
chain: MAEILLTSVINKSVEIAGNLLIQEGKRLYWLKEDIDWLQREMRHIRSYVDNAKAKEAGGDSRVKNLLKDIQELAGDVEDLLDDFLPKIQQSNKFNYCLKRSSFADEFAMEIEKIKRRVVDIDRIRKTYNIIDTDNNNDDCVLLDRRRLFLHADETEIIGLDDDFNMLQAKLLNQDLHYGVVSIVGMPGLGKTTLAKKLYRLIRDQFECSGLVYVSQQPRASEILLDIAKQIGLTEQKMKENAEDNLRSLLKIKRYVILLDDIWDVEIWDDLKLVLPECDSKVGSRMIITSRNSNVGRYIGGESSLHALQPLESEKSFELFTKKIFNFDDNNSWANASPDLVNIGRNIVGRCGGIPLAIVVTAGMLRARERTEHAWNRVLESMGHKVQDGCAKVLALSYNDLPIASRPCFLYFGLYPEDHEIRAFDLINMWIAEKFIVVNSGNRREAEDLAEDVLNDLVSRNLIQLAKRTYNGRISSCRIHVLLHSLCVDLAK
binding [6]: binds

B4: Tm-2^2 CC-NB-ARC (D481V, L233A)-Rop (domain or fragment, UniProt Q71BG9 1-492)
chain: MAEILLTSVINKSVEIAGNLLIQEGKRLYWLKEDIDWLQREMRHIRSYVDNAKAKEAGGDSRVKNLLKDIQELAGDVEDLLDDFLPKIQQSNKFNYCLKRSSFADEFAMEIEKIKRRVVDIDRIRKTYNIIDTDNNNDDCVLLDRRRLFLHADETEIIGLDDDFNMLQAKLLNQDLHYGVVSIVGMPGLGKTTLAKKLYRLIRDQFECSGLVYVSQQPRASEILLDIAKQIGATEQKMKENLEDNLRSLLKIKRYVILLDDIWDVEIWDDLKLVLPECDSKVGSRMIITSRNSNVGRYIGGESSLHALQPLESEKSFELFTKKIFNFDDNNSWANASPDLVNIGRNIVGRCGGIPLAIVVTAGMLRARERTEHAWNRVLESMGHKVQDGCAKVLALSYNDLPIASRPCFLYFGLYPEDHEIRAFDLINMWIAEKFIVVNSGNRREAEDLAEDVLNDLVSRNLIQLAKRTYNGRISSCRIHVLLHSLCVDLAK
binding [7]: binds

B5: Tm-2^2 CC-NB-ARC (D481V)-Rop (domain or fragment, UniProt Q71BG9 1-492)
chain: MAEILLTSVINKSVEIAGNLLIQEGKRLYWLKEDIDWLQREMRHIRSYVDNAKAKEAGGDSRVKNLLKDIQELAGDVEDLLDDFLPKIQQSNKFNYCLKRSSFADEFAMEIEKIKRRVVDIDRIRKTYNIIDTDNNNDDCVLLDRRRLFLHADETEIIGLDDDFNMLQAKLLNQDLHYGVVSIVGMPGLGKTTLAKKLYRLIRDQFECSGLVYVSQQPRASEILLDIAKQIGLTEQKMKENLEDNLRSLLKIKRYVILLDDIWDVEIWDDLKLVLPECDSKVGSRMIITSRNSNVGRYIGGESSLHALQPLESEKSFELFTKKIFNFDDNNSWANASPDLVNIGRNIVGRCGGIPLAIVVTAGMLRARERTEHAWNRVLESMGHKVQDGCAKVLALSYNDLPIASRPCFLYFGLYPEDHEIRAFDLINMWIAEKFIVVNSGNRREAEDLAEDVLNDLVSRNLIQLAKRTYNGRISSCRIHVLLHSLCVDLAK
binding [8]: binds

B7: Tm-2^2 CC-DP-Rop (domain or fragment, UniProt Q71BG9 1-141)
chain: MAEILLTSVINKSVEIAGNLLIQEGKRLYWLKEDIDWLQREMRHIRSYVDNAKAKEAGGDSRVKNLLKDIQELAGDVEDLLDDFLPKIQQSNKFNYCLKRSSFADEFAMEIEKIKRRVVDIDRIRKTYNIIDTDNNNDDCVEFLIVKS
binding [10]: binds

B8: Tm-2^2 (receptor, UniProt Q71BG9 1-861)
chain: MAEILLTSVINKSVEIAGNLLIQEGKRLYWLKEDIDWLQREMRHIRSYVDNAKAKEAGGDSRVKNLLKDIQELAGDVEDLLDDFLPKIQQSNKFNYCLKRSSFADEFAMEIEKIKRRVVDIDRIRKTYNIIDTDNNNDDCVLLDRRRLFLHADETEIIGLDDDFNMLQAKLLNQDLHYGVVSIVGMPGLGKTTLAKKLYRLIRDQFECSGLVYVSQQPRASEILLDIAKQIGLTEQKMKENLEDNLRSLLKIKRYVILLDDIWDVEIWDDLKLVLPECDSKVGSRMIITSRNSNVGRYIGGESSLHALQPLESEKSFELFTKKIFNFDDNNSWANASPDLVNIGRNIVGRCGGIPLAIVVTAGMLRARERTEHAWNRVLESMGHKVQDGCAKVLALSYNDLPIASRPCFLYFGLYPEDHEIRAFDLINMWIAEKFIVVNSGNRREAEDLAEDVLNDLVSRNLIQLAKRTYNGRISSCRIHDLLHSLCVDLAKESNFFHTAHDAFGDPGNVARLRRITFYSDNVMIEFFRSNPKLEKLRVLFCFAKDPSIFSHMAYFDFKLLHTLVVVMSQSFQAYVTIPSKFGNMTCLRYLRLEGNICGKLPNSIVKLTRLETIDIDRRSLIQPPSGVWESKHLRHLCYRDYGQACNSCFSISSFYPNIYSLHPNNLQTLMWIPDKFFEPRLLHRLINLRKLGILGVSNSTVKMLSIFSPVLKALEVLKLSFSSDPSEQIKLSSYPHIAKLHLNVNRTMALNSQSFPPNLIKLTLAYFSVDRYILAVLKTFPKLRKLKMFICKYNEEKMDLSGEANGYSFPQLEVLHIHSPNGLSEVTCTDDVSMPKLKKLLLTGFHCRISLSERLKKLSK
binding (Tm-2^2 (tomato) [11]): binds | binding (Tm-2^2 (tomato) [12]): binds weakly

Results, then the binder that gave them:

binding [1]: binds | binding [2]: binds | binding [3]: binds | binding [4]: binds
B1: Tm-2^2 LRR domain (aa 493-861) (domain or fragment, UniProt Q71BG9 493-861)
chain: ESNFFHTAHDAFGDPGNVARLRRITFYSDNVMIEFFRSNPKLEKLRVLFCFAKDPSIFSHMAYFDFKLLHTLVVVMSQSFQAYVTIPSKFGNMTCLRYLRLEGNICGKLPNSIVKLTRLETIDIDRRSLIQPPSGVWESKHLRHLCYRDYGQACNSCFSISSFYPNIYSLHPNNLQTLMWIPDKFFEPRLLHRLINLRKLGILGVSNSTVKMLSIFSPVLKALEVLKLSFSSDPSEQIKLSSYPHIAKLHLNVNRTMALNSQSFPPNLIKLTLAYFSVDRYILAVLKTFPKLRKLKMFICKYNEEKMDLSGEANGYSFPQLEVLHIHSPNGLSEVTCTDDVSMPKLKKLLLTGFHCRISLSERLKKLSK

binding [2]: binds | binding [3]: binds | binding [9]: binds
B6: Tm-2^2 NB-ARC domain (aa 141-492) (domain or fragment, UniProt Q71BG9 141-492)
chain: VLLDRRRLFLHADETEIIGLDDDFNMLQAKLLNQDLHYGVVSIVGMPGLGKTTLAKKLYRLIRDQFECSGLVYVSQQPRASEILLDIAKQIGLTEQKMKENLEDNLRSLLKIKRYVILLDDIWDVEIWDDLKLVLPECDSKVGSRMIITSRNSNVGRYIGGESSLHALQPLESEKSFELFTKKIFNFDDNNSWANASPDLVNIGRNIVGRCGGIPLAIVVTAGMLRARERTEHAWNRVLESMGHKVQDGCAKVLALSYNDLPIASRPCFLYFGLYPEDHEIRAFDLINMWIAEKFIVVNSGNRREAEDLAEDVLNDLVSRNLIQLAKRTYNGRISSCRIHDLLHSLCVDLAK
